From US20210261642A1, “SOLUBILITY OF GLP-1 PEPTIDE” (Novo Nordisk A/S, priority 2017, published 2021)
Further values from the same series stand in other lists.

Assay: Assay (I): Determination of Solubility (96-well plate, pH 3.0-11.0, organic solvent 0-70% w/w, UV absorption at 280 nm)
Type: physicochemical
Settings: MeCN 12.7% w/w, Method 1
Description: Assay (I): Determination of Solubility
96-Well Plate Preparation
96-well plates containing target peptide in a solid form were prepared in one of two ways:
Method 1 (evaporation): Addition of 100 μl stock solution of said peptide at a concentration of 4-6 mg/ml to each well of a 96-well half area plate (150 μl well size). Subsequently the solvent was evaporated by applying a vacuum until the solvent was completely removed.
Method 2 (precipitation): Addition of a certain volume of a stock solution of said peptide containing to each well of a 96-well half area plate followed by the addition of a certain volume of concentrated phosphoric acid to obtain a pH of 4.6 followed by addition of a certain volume of ethanol resulting in a final ethanol concentration of 20% v/v. Subsequently the plate was stored at 4° C. for 1 h and then centrifuged at 4,000 rpm for 20 min. Finally the supernatant was removed. The concentration of the stock solution was chosen in a way that the final amount of peptide after supernatant removal was >0.4 mg per well.
In both cases the stock solution was prepared by adding de-ionized water to a certain amount of powder of said peptide followed by a stepwise addition of small amounts of a concentrated sodium hydroxide solution until said peptide was completely in solution.
To determine solubility of a target peptide at different pH and organic solvent concentrations, two different buffer systems were used in independent experiments to cover the whole range from pH 3.0 to pH 11.0. Buffer system 1 covers pH 3.0-7.5 and buffer system 2 covers pH 7.5-11.0. For each buffer system 96 different solvent compositions were premixed in the following way: • 1. A low pH buffer (adjusted to either pH 3.0 or pH 7.5) and a high pH buffer (adjusted to either pH 7.5 or pH 11.0) were mixed at 8 different ratios to obtain values between pH 3.0 and pH 7.5 or pH 7.5 and pH 11.0, respectively. The total volume after mixing was 300 μl. • 2. 12 different amounts of organic solvent were then added to these buffers to obtain organic solvent (e.g. ethanol) concentrations between 0 and 70% w/w. • 3. Water was then added to obtain a total weight of 1.0 g of solvent in each well.
After preparing the 96 different solvent systems, 100 μl of each system was transferred to the 96-well plate containing the solid form of the target peptide (prepared as described in the section “96-well plate preparation”). The plate was then stored at a given temperature (between 5° C. and 70° C.) for a given time on a rotating shaker set to 400 rpm. At regular time intervals the plate was centrifuged (4,000 rpm for 10 min) and a 10 μl sample was taken from each well. The samples were then analysed by UV absorption at 280 nm for peptide quantification. Peptide concentration results are given as UV absorption at 280 nm of the sample subtracted UV absorption at 280 nm of a well comprising 10 μl water.
The buffers used were as follows: • Buffer system 1 (for the pH range from pH 3.0-7.5)
• Buffer system 2 (for the pH ranae from pH 7.5-11.0)
Solubility of liraglutide was determined using Assay (I) described herein. Liraglutide was prepared using Method 1 (evaporation) or Method 2 (precipitation) as described in subsection “96-well plate preparation”.

Peptide concentration after 180 min (pH 3.0, 5° C.): 0.2 mg/mL
Peptide concentration after 24 h (pH 3.0, 5° C.): 0.3 mg/mL
Peptide concentration after 5 min (pH 3.0, 70° C.): 3.5 mg/mL
Peptide concentration after 180 min (pH 3.0, 70° C.): >4.0 mg/mL
Peptide concentration after 5 min (pH 3.0, RT): 0.3 mg/mL
Peptide concentration after 180 min (pH 3.0, RT): 0.1 mg/mL
Peptide concentration after 24 h (pH 3.0, RT): 0.1 mg/mL
Peptide concentration after 5 min (pH 3.6, 5° C.): 0.1 mg/mL
Peptide concentration after 180 min (pH 3.6, 5° C.): 0.2 mg/mL
Peptide concentration after 24 h (pH 3.6, 5° C.): 0.2 mg/mL
Peptide concentration after 5 min (pH 3.6, 70° C.): 0.3 mg/mL
Peptide concentration after 180 min (pH 3.6, 70° C.): 0.1 mg/mL
Peptide concentration after 5 min (pH 3.6, RT): 0.1 mg/mL
Peptide concentration after 180 min (pH 3.6, RT): 0.1 mg/mL
Peptide concentration after 24 h (pH 3.6, RT): 0.1 mg/mL
Peptide concentration after 5 min (pH 4.3, 5° C.): 0.1 mg/mL
Peptide concentration after 180 min (pH 4.3, 5° C.): 0.1 mg/mL
Peptide concentration after 24 h (pH 4.3, 5° C.): 0.1 mg/mL
Peptide concentration after 5 min (pH 4.3, 70° C.): 0.1 mg/mL
Peptide concentration after 180 min (pH 4.3, 70° C.): 0.0 mg/mL
Peptide concentration after 5 min (pH 4.3, RT): 0.1 mg/mL
Peptide concentration after 180 min (pH 4.3, RT): 0.1 mg/mL
Peptide concentration after 24 h (pH 4.3, RT): 0.1 mg/mL
Peptide concentration after 5 min (pH 4.9, 5° C.): 0.1 mg/mL
Peptide concentration after 180 min (pH 4.9, 5° C.): 0.1 mg/mL
Peptide concentration after 24 h (pH 4.9, 5° C.): 0.1 mg/mL
Peptide concentration after 5 min (pH 4.9, 70° C.): 0.1 mg/mL
Peptide concentration after 180 min (pH 4.9, 70° C.): 0.1 mg/mL
Peptide concentration after 5 min (pH 4.9, RT): 0.1 mg/mL
Peptide concentration after 180 min (pH 4.9, RT): 0.1 mg/mL
Peptide concentration after 24 h (pH 4.9, RT): 0.0 mg/mL
Peptide concentration after 5 min (pH 5.6, 5° C.): 0.1 mg/mL
Peptide concentration after 180 min (pH 5.6, 5° C.): 0.1 mg/mL
Peptide concentration after 24 h (pH 5.6, 5° C.): 0.1 mg/mL
Peptide concentration after 5 min (pH 5.6, 70° C.): 0.5 mg/mL
Peptide concentration after 180 min (pH 5.6, 70° C.): 0.1 mg/mL
Peptide concentration after 5 min (pH 5.6, RT): 0.2 mg/mL
Peptide concentration after 180 min (pH 5.6, RT): 0.2 mg/mL
Peptide concentration after 24 h (pH 5.6, RT): 0.1 mg/mL
Peptide concentration after 5 min (pH 6.2, 5° C.): 0.2 mg/mL
Peptide concentration after 180 min (pH 6.2, 5° C.): 0.3 mg/mL
Peptide concentration after 24 h (pH 6.2, 5° C.): 0.4 mg/mL
Peptide concentration after 5 min (pH 6.2, 70° C.): 1.8 mg/mL
Peptide concentration after 180 min (pH 6.2, 70° C.): 1.3 mg/mL
Peptide concentration after 5 min (pH 6.2, RT): 0.5 mg/mL
Peptide concentration after 180 min (pH 6.2, RT): 1.2 mg/mL
Peptide concentration after 24 h (pH 6.2, RT): 1.3 mg/mL
Peptide concentration after 5 min (pH 6.9, 5° C.): 1.0 mg/mL
Peptide concentration after 180 min (pH 6.9, 5° C.): 2.3 mg/mL
Compound: CCCCCCCCCCCCCCCC(=O)N[C@@H](CCC(=O)NCCCC[C@H](NC(=O)[C@H](C)NC(=O)[C@H](C)NC(=O)[C@H](CCC(N)=O)NC(=O)CNC(=O)[C@H](CCC(=O)O)NC(=O)[C@H](CC(C)C)NC(=O)[C@H](Cc1ccc(O)cc1)NC(=O)[C@H](CO)NC(=O)[C@H](CO)NC(=O)[C@@H](NC(=O)[C@H](CC(=O)O)NC(=O)[C@H](CO)NC(=O)[C@@H](NC(=O)[C@H](Cc1ccccc1)NC(=O)[C@@H](NC(=O)CNC(=O)[C@H](CCC(=O)O)NC(=O)[C@H](C)NC(=O)[C@@H](N)Cc1cnc[nH]1)[C@@H](C)O)[C@@H](C)O)C(C)C)C(=O)N[C@@H](CCC(=O)O)C(=O)N[C@@H](Cc1ccccc1)C(=O)N[C@H](C(=O)N[C@@H](C)C(=O)N[C@@H](Cc1c[nH]c2ccccc12)C(=O)N[C@@H](CC(C)C)C(=O)N[C@H](C(=O)N[C@@H](CCCNC(=N)N)C(=O)NCC(=O)N[C@@H](CCCNC(=N)N)C(=O)NCC(=O)O)C(C)C)[C@@H](C)CC)C(=O)O [liraglutide, Arg34,Lys26-(N-epsilon-(gamma-L-glutamyl(N-alfa-hexadecanoyl)))-GLP-1(7-37)]
